# Measured values as given in patent EP2265599B1, “CRYSTAL FORM OF PHENYLAMINOPYRIMIDINE DERIVATIVE” (Natco Pharma Limited, priority 2008, dated 2009).
# For at least one compound, name, drawing or mass did not settle the structure.
# How the values were obtained:
# Type in all cases: cell-based
# ZR-71 cells = assay: In vitro angiogenic assay (conditioned media on human dermal endothelial cells), ZR-71
# Procedure: (§1) The in vitro angiogenesis of 4910, 5310 and U87 glioma cells and MDAMB231 and ZR71 breast cancer cells in the presence of specified concentrations of compounds were determined as follows, cells (2x10^4/well) were seeded in 8-well chamber slides and were treated with various concentrations of test compounds. After a 24 h incubation period, the conditioned media was removed and added to a 4x 10^4 human dermal endothelial cell (monolayer in 8-well chamber slides) and the human dermal endothelial cells were allowed to grow for 72 h. Cells were then fixed in 3.7% formaldehyde and stained with H&E and photographed.
# MDA-MB-231 cells = assay: In vitro angiogenic assay (conditioned media on human dermal endothelial cells), MDA-MB-231; conditions: control condition and after radiation
# Procedure: as §1
# [1] = tested on: Glioma xenograft cells 4910; assay: In vitro angiogenic assay (conditioned media on human dermal endothelial cells), 4910; conditions: 4910 cells, with and without radiation
# Procedure: as §1
# 5310 cells = assay: In vitro angiogenic assay (conditioned media on human dermal endothelial cells), 5310; conditions: control conditions and after radiation
# Procedure: as §1
# [2] = tested on: 4910, 5310 and U87 glioma cells and MDAMB231 and ZR71 breast cancer cells; assay: Western blot analysis for pAKT and pERK (cell line not specified); conditions: with and without radiation
# Procedure: Western blot analysis of 4910, 5310 and U87 glioma cells and MDAMB231 and ZR71 breast cancer cells in the presence of specified concentrations of compounds were assessed as per standard protocols. Cells were treated with AN019, AN024 or Temozolomide at the specified concentrations. 24h after treatment, cells were collected and cell lysates extracted. Equal quantities of proteins were fractionated by SDS-PAGE. The fractionated proteins were blotted on to nylon membranes and immunoprobed for AKT, ERK and Pi3k. Breast cancer cell protein isolates were additionally immunoprobed for EGFR, ErbB1, ErbB2 and ErbB3.
compound,measurement,setting,value
"Cn1nnc2c(C(N)=O)ncn2c1=O [Temozolomide, reference compound]",inhibition of angiogenesis,ZR-71 cells,complete inhibition of angiogenesis
same,inhibition of angiogenesis,MDA-MB-231 cells,only a slight inhibition was observed in control condition with an increase in inhibition after radiation
same,inhibition of angiogenesis,[1],significant inhibition of angiogenesis both with and without radiation
same,inhibition of angiogenesis,5310 cells,"inhibition of angiogenesis was seen in control conditions, whereas angiogenesis was promoted after radiation treatment"
same,Levels of pAKT,[2],did not show any significant change
same,levels of pERK,[2],did not show any significant change
